# Measured values reported in PubChem BioAssay AID212 (DTP/NCI, 2004).
# The list shows only some results of the screen, not a fair sample: it is rich in T/C values a quarter to a half above the control, in often repeated tests (any T/C) and in doses without a T/C. Other doses and runs of a compound stand elsewhere. T/C: endpoint of the treated group in % of that of the vehicle group. Schedules are NCI's codes, read here as Q, the interval in days (D) or hours (H), X, the number of doses. Some T/C values carry the count of animals alive at the toxicity check (mostly the fifth day); without a count, all were alive then. Some entries were tested several times; their values stand side by side, smallest first. Some entries give survivors of the animals treated and no T/C: the source files T/C as zero there, which appears to mark a toxic dose or a test without result, not a measured value. Counts of survivors are from the toxicity check (mostly the fifth day) where no day follows; animals may have died later.
# System: BDF1 mice, colon carcinoma 38 sc, T/C %
# Experiment: NCI In Vivo Anticancer Drug Screen. Data for tumor model Colon Carcinoma 38 (subcutaneous) in B6D2F1 (BDF1) mice
# Details: T/C endpoint: median tumor weight (est.), higher T/C = larger tumour; for T/C: evaluated on day 20
# Method in brief: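 T/C readout: treated group (T) measurement over vehicle control group (C) measurement. Endpoint is survival or tumor size in mice bearing a transplanted tumor.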
# [1] = dose: 6.25 mg/kg/injection, schedule: Q07DX002 (ip), vehicle: saline
# [2] = dose: 25.0 mg/kg/injection, schedule: Q07DX002 (ip), vehicle: saline
# [3] = dose: 50.0 mg/kg/injection, schedule: Q07DX002 (ip), vehicle: saline
# [4] = dose: 100.0 mg/kg/injection, schedule: Q07DX002 (ip), vehicle: saline
# [5] = dose: 200.0 mg/kg/injection, schedule: Q07DX002 (ip), vehicle: saline
# [6] = dose: 12.5 mg/kg/injection, schedule: Q07DX002 (ip), vehicle: saline
# [7] = dose: 50.0 mg/kg/injection, schedule: Q07DX003 (ip), vehicle: Klucel (hydroxypropylcellulose) (HPC)
smiles,measurement,setting,value
CNc1nc2c(N)ncnc2n1C1OC(CO)C(O)C1O (stereo not given),T/C,[1],128 % of control [9 of 10 alive on day 20]
same,survivor count,[2],4 of 10 on day 20
same,survivor count,[3],5 of 10 on day 20
same,survivor count,[4],1 of 10 on day 20
same,survivor count,[5],0 of 10 on day 20
CC1=CC2C(O)(CC(CO)=CC3C4C(C)(C)C4(OC(=O)c4ccccc4)C(OC(=O)c4ccccc4)C(C)C32O)C1=O (stereo not given),T/C,"dose: 1.0 mg/kg/injection, schedule: Q07DX002 (ip), vehicle: saline with Tween-80",144 % of control [7 of 10 alive on day 20]
same,T/C,"dose: 4.0 mg/kg/injection, schedule: Q07DX002 (ip), vehicle: saline with Tween-80",140 % of control
same,survivor count,"dose: 8.0 mg/kg/injection, schedule: Q07DX002 (ip), vehicle: saline with Tween-80",0 of 10 on day 20
c1cnc2ncncc2n1,T/C,[6],140 % of control
same,T/C,[2],144 % of control
same,T/C,[3],137 % of control
CC(=O)OCc1cc(=O)n(C)c2c3c4c(cc12)c(C)cc(=O)n4CO3,T/C,"dose: 25.0 mg/kg/injection, schedule: Q07DX003 (ip), vehicle: Klucel (hydroxypropylcellulose) (HPC)",138 % of control
same,T/C,[7],134 % of control
COC(=O)Nc1nc2ccc(C3(c4ccc(F)cc4)OCCO3)cc2[nH]1,survivor count,"dose: 400.0 mg/kg/injection, schedule: Q07DX002 (ip), vehicle: saline",3 of 8 on day 20 and 6 of 10 on day 20
OCCOCCN1CCN(CCCN2c3ccccc3Sc3ccc(C(F)(F)F)cc32)CC1,T/C,[1],143 % of control
same,T/C,[2],135 % of control
CC(=O)OCC1OC([S-])C(OC(C)=O)C(OC(C)=O)C1OC(C)=O.CC[PH+](CC)CC.CC[PH+](CC)CC.[Au].[Au] (stereo not given),T/C,"dose: 2.5 mg/kg/injection, schedule: Q07DX002 (ip), vehicle: Klucel (hydroxypropylcellulose) (HPC)",127 % of control
same,T/C,"dose: 5.0 mg/kg/injection, schedule: Q07DX002 (ip), vehicle: Klucel (hydroxypropylcellulose) (HPC)",135 [9 of 10 alive on day 20] and 143 % of control
same,survivor count,"dose: 20.0 mg/kg/injection, schedule: Q07DX002 (ip), vehicle: Klucel (hydroxypropylcellulose) (HPC)",0 of 10 on day 20 and 3 of 10 on day 20
same,survivor count,"dose: 40.0 mg/kg/injection, schedule: Q07DX002 (ip), vehicle: Klucel (hydroxypropylcellulose) (HPC)",0 of 10 on day 20
Nc1ccc(Cn2ccc3c4c(N)nc(N)nc4ccc32)cc1,T/C,"dose: 1.25 mg/kg/injection, schedule: Q07DX002 (ip), vehicle: saline with Tween-80",132 % of control
same,survivor count,"dose: 40.0 mg/kg/injection, schedule: Q07DX002 (ip), vehicle: saline with Tween-80",3 of 10 on day 20
CN(C(=S)S(=O)(=O)C12CC3CC(CC(C3)C1)C2)c1ccccc1,T/C,"dose: 100.0 mg/kg/injection, schedule: Q07DX002 (ip), vehicle: Klucel (hydroxypropylcellulose) (HPC)",148 % of control [9 of 10 alive on day 20]
N/C=N/O,T/C,[6],143 % of control
[CH3][Sn]([CH3])([Cl])[S]CCN,survivor count,[4],2 of 10 on day 20
same,survivor count,[5],0 of 10 on day 20
CCCCCCCC(=O)[O][Hg][CH2]C1COC([CH2][Hg][O]C(=O)CCCCCCC)CO1 (stereo not given),T/C,"dose: 6.25 mg/kg/injection, schedule: Q07DX002 (ip), vehicle: saline with Tween-80",126 % of control
same,survivor count,"dose: 100.0 mg/kg/injection, schedule: Q07DX002 (ip), vehicle: saline with Tween-80",0 of 10 on day 20
NC(CCl)=NCC12CC3CC(CC(C3)C1)C2,T/C,"dose: 12.5 mg/kg/injection, schedule: Q07DX003 (ip), vehicle: Klucel (hydroxypropylcellulose) (HPC)",132 % of control
same,T/C,[7],141 % of control
